Drawing on article PMC10724200, “A peptide derived from interleukin-10 exhibits potential anticancer activity and can facilitate cell targeting of gold nanoparticles loaded with anticancer therapeutics” (Communications Chemistry, 2023), this text covers binding for 1 molecule.

Amino acid sequences for entries named in this document (tags omitted). A change or cut given only in a name is not applied to a line headed by its entry.
UniProt Q13651: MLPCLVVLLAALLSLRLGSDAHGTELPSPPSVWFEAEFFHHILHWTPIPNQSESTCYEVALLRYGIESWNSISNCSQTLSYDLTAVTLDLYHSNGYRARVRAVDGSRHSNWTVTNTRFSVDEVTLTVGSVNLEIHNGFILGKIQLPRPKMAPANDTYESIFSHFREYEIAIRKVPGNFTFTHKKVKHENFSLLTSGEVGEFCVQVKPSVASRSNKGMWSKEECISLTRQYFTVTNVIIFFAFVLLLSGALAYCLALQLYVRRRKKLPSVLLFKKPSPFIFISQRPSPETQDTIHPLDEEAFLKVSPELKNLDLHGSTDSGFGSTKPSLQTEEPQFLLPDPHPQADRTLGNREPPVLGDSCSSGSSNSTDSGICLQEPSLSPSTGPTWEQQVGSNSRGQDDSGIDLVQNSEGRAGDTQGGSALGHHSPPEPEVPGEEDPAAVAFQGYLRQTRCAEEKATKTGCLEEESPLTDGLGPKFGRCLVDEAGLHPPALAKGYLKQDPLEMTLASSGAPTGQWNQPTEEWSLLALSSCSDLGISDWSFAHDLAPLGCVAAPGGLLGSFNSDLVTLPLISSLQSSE

This assay deals with recombinant receptor human IL-10Ra protein (human) (UniProt Q13651). Description: BLI; ForteBio Octet RED96e, streptavidin biosensors loaded with 10 μg/mL recombinant human IL-10Ra (150 s); peptides at 3.12-100.0 μM, association 120 s; dissociation 120 s in PBS with 0.05% Tween20; both purified. In general terms: In BLI a coated tip is dipped into the sample, and binding shifts an interference pattern.

These are yes or no findings as the source states them, for the method shown.

B1: CG20 negative control peptide (peptide)
peptide: CPLNGSTVYGHLRHCLSCSG
Consider B1, for which the binding entry is listed as “no binding (tested: 100.0 μM (highest concentration tested))”.
